Test results: article PMC8091128
Results are given in words; binding and its absence hold for the method and conditions named. Some binding calls cover weakened binding; strength is not graded here.

The chains behind the UniProt entries cited, without tags or fusion partners. Where a name states a change or a piece, a line headed by the entry shows the natural chain unless it says otherwise. Residues count along the entry.
UniProt P35222: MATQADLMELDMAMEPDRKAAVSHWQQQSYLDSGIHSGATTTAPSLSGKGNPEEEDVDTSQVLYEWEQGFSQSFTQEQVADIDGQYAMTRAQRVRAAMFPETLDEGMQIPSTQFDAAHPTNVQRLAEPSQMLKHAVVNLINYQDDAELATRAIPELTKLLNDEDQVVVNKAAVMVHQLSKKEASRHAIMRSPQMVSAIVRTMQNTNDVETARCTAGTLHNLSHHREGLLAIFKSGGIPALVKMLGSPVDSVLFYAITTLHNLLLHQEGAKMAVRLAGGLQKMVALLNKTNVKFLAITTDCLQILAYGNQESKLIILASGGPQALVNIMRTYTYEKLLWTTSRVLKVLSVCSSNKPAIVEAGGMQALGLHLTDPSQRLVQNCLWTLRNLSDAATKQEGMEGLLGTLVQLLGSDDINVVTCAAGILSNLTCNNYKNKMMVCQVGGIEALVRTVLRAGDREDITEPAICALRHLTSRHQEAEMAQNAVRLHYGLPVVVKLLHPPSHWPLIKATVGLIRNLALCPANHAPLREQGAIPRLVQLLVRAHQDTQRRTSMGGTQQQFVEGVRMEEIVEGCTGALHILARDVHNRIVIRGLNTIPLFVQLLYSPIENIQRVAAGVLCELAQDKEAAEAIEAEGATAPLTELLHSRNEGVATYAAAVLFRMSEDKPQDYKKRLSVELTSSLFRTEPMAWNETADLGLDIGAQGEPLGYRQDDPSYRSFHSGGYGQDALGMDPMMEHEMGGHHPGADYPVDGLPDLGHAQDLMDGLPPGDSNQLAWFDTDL
UniProt P12830, residues 731-882: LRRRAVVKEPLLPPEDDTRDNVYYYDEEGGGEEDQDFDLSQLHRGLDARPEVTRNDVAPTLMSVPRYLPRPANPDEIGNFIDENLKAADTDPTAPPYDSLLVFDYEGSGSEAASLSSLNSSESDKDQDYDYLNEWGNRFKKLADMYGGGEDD

Experiments:
Test in all cases: pull-down; GST-fusion protein on glutathione-Sepharose beads, with or without PAK1 kinase domain and cold ATP (5 min, 30°C), then cleaved proteins (0.05 and 0.1 µg) in phosphorylation buffer (50 mM Hepes pH 7.3, 10 mM MgCl2, 10 mM NaF, 2 mM MnCl2) with 0.3 M NaCl and 0.5% Triton X-100, 30 min at 4°C; both purified
GST–β-catenin S675A = GST–β-catenin S675A (UniProt P35222)
GST–β-catenin WT = GST–β-catenin WT (UniProt P35222)
GST–β-catenin S675D = GST–β-catenin S675D (UniProt P35222)
[1] = biological target: GST–E-cadherin cytoplasmic tail phosphorylated by PAK1 (UniProt P12830)
[2] = biological target: GST–E-cadherin cytoplasmic tail (UniProt P12830)

| binding (GST–β-catenin S675A) | binding (GST–β-catenin WT) | binding (GST–β-catenin S675D) | binding [1] | binding [2] | Substance |
| --- | --- | --- | --- | --- | --- |
| binds | binds | binds | – | – | recombinant E-cadherin cytoplasmic tail (in solution) (from UniProt P12830 731-882) (domain or fragment) |
| – | – | – | binds | binds | β-catenin (cleaved from GST–β-catenin) (from UniProt P35222 1-781) |
